These results are taken from US20250179167A1, “IL-6 INHIBITOR AS TREATMENT FOR NEPHROPATHY” (YALE UNIVERSITY, priority 2022, published 2025).

The test system of series [1] is control littermates and GR^ECKO mice. In words: Etomoxir and C75 in non-diabetic and diabetic control littermates and GR^ECKO mice. The settings on record: non-diabetic or diabetic control littermates and GR^ECKO mice. In kind it is in vivo, mouse. How it is done:
FIGS. 6A-6E show metabolic reprogramming by loss of endothelial GR loss worsens diabetic kidney disease. (FIG. 6A) Radiolabeled ^14C-palmitate uptake analysis in isolated endothelial cells from kidneys of nondiabetic and diabetic control, GR^ECKO Apoe^−/− and DKO mice. CPM of each sample were counted. Data were normalized to μg protein. Fold activity is presented. Endothelial cells isolated and cultured from six biologically independent mice/group were performed in triplicate and analyzed for ^14C-palmitate uptake analysis. Data are mean±SEM. (FIG. 6B) Radiolabeled [^14C]palmitate oxidation and [^14CO2]release were measured in isolated endothelial cells from kidneys of nondiabetic and diabetic control, GR^ECKO Apoe^−/− and DKO mice. CPM of each sample was counted. Data were normalized to μg protein. Fold activity is presented. Endothelial cells isolated and cultured from six biologically independent mice/group were performed in triplicate and analyzed for ^14C-palmitate uptake analysis. Data are mean±SEM. (FIG. 6C) Body weight, blood glucose, and kidney weight/body weight were measured at the end of these experiments. N=6 biologically independent mice from two experiments. Ex vivo radiolabeled [^14C]palmitate oxidation and [^14CO2]release were measured in kidneys. CPM of each sample was counted. Isolated endothelial cells from five biologically independent mice/group were analyzed in triplicate. Data are mean±SEM. (FIG. 6D) Masson trichrome, Sirius red and PAS staining were analyzed in the kidneys of control, etomoxir- and C75-treated diabetic mice. Representative images are shown; original magnification 300×. Relative area of fibrosis (%) and relative collagen deposition (%) were measured using the ImageJ program. N=8 biologically independent mice per/group from three independent experiments were analyzed. Scale bar 50 μm. Data are mean±SEM. (FIG. 6E) Immunohistochemical analysis of CPT1a and β-catenin. Representative images are shown; original magnification 300×. Scale bar 50 μm. N=6 biologically independent mice per group from three independent experiments. For all panels one-way ANOVA with Tukey post-test was used for analysis of statistical significance. Significance—*p<0.05, **p<0.01, ***p<0.001.
Body weight, blood glucose, and kidney/body weight ratio and fatty acid oxidation as represented by [^14CO2]release are shown. [^14C]palmitate was used as substrate and CPM counts were normalized by protein. n=6 biologically independent mice/group. Data are mean±SEM. One-way Anova with Tukey multiple comparison post hoc test was used to calculate statistical significance. Significance—*p<0.05.
Masson trichrome staining (upper panel) and Sirius red (lower panels) in etomoxir- and C75-treated non-diabetic control and GR^ECKO mice. Etomoxir (20 mg/kg) and C75 (15 mg/kg) were dosed (IP) three times per week for 3 weeks in GR^ECKO and control littermates. Representative images are shown; original magnification 400×. Area of fibrosis (%) and relative collage deposition (%) in n=6 biologically independent mice/group were combined from two independent experiments. Scale bar 50 μm. Data are mean±SEM. One-way Anova with Tukey multiple comparison post hoc test was used to calculate statistical significance. Significance-**p<0.01.
Animal Experimentation. All experiments were performed according to a protocol approved by the Institutional Animal Care and Use Committee at the Yale University School of Medicine and were in accordance with the National Institute of Health (NIH) Guidelines for the Care of Laboratory Animals Mice were housed at an ambient temperature of 68-79° F. with a humidity that ranged between 30%-70%. They were exposed to 12-h light-dark cycles Mice lacking the endothelial glucocorticoid receptor (GR) (known as GR^ECKO) and those lacking this receptor on the Apoe null background (DKO) were generated as previously described^25; these mice were on the C57BL/6 background. […]

The subject of the next series is control and GR^ECKO mice. In words: Wnt inhibitor (LGK974) treatment in nondiabetic and diabetic control and GR^ECKO mice. The format is in vivo, mouse. The settings on record: at the time of sacrifice, among the groups (control and GR^ECKO mice), oral gavage 8 weeks. On the procedure: (FIG. 5A) Schematic diagram showing the treatment protocol of Wnt inhibition in diabetic control and GR^ECKO mice. (FIG. 5B) Physiological parameters including body weight, blood glucose and kidney weight/body weight were analyzed. N=6 biologically independent mice/group combined from two experiments. (FIG. 5C) Masson trichrome, Sirius red and PAS staining as well as immunohistochemical analysis of β-catenin levels in the kidneys of wnti-treated diabetic control and GR^ECKO mice. Representative images are shown; original magnification 300×. Relative area of fibrosis (%) and relative collagen deposition (%) were measured using the ImageJ program. N=8 biologically independent mice/group combined from three experiments were analyzed. Scale bar 50 μm. Data are mean SEM. […]
Physiological parameters including body weight, blood glucose, and kidney weight/body weight are shown. n=7 biologically independent mice/group combined from two experiments were analyzed. […]
FIGS. 27A-27B Histological analysis of kidneys from Wnt inhibitor-treated nondiabetic control and GR^ECKO mice. […] Area of fibrosis (%) and relative collagen deposition (%) were measured using the ImageJ program. N=5 biologically independent mice/group were analyzed. […] Scale bar 30 μm. n=6 biologically independent mice/group combined from two independent experiments were analyzed. […]

`C=C1C(=O)OC(CCCCCCCC)C1C(=O)O` (centres unmarked) [C75]: in series [1], the blood glucose entry was “no significant differences”, the body weight result is “no significant differences” and the kidney weight result is recorded as “no significant differences”.
In the case of `Cc1cc(-c2ncc(CC(=O)Nc3ccc(-c4cnccn4)cn3)cc2C)ccn1` [LGK974], in the series on control and GR^ECKO mice, the blood glucose entry is “no significant differences” and the body weight entry is given as “no significant differences”.
`CCOC(=O)[C@@]1(CCCCCCOc2ccc(Cl)cc2)CO1` [etomoxir]: in series [1], the blood glucose entry is recorded as “no significant differences”, the body weight result is given as “no significant differences” and the kidney weight entry is given as “no significant differences”.
